# Source: publication PMC2965115
# Protein sequences, listed by entry. Tags and fused reporters are not part of them.
# UniProt G5EBZ4: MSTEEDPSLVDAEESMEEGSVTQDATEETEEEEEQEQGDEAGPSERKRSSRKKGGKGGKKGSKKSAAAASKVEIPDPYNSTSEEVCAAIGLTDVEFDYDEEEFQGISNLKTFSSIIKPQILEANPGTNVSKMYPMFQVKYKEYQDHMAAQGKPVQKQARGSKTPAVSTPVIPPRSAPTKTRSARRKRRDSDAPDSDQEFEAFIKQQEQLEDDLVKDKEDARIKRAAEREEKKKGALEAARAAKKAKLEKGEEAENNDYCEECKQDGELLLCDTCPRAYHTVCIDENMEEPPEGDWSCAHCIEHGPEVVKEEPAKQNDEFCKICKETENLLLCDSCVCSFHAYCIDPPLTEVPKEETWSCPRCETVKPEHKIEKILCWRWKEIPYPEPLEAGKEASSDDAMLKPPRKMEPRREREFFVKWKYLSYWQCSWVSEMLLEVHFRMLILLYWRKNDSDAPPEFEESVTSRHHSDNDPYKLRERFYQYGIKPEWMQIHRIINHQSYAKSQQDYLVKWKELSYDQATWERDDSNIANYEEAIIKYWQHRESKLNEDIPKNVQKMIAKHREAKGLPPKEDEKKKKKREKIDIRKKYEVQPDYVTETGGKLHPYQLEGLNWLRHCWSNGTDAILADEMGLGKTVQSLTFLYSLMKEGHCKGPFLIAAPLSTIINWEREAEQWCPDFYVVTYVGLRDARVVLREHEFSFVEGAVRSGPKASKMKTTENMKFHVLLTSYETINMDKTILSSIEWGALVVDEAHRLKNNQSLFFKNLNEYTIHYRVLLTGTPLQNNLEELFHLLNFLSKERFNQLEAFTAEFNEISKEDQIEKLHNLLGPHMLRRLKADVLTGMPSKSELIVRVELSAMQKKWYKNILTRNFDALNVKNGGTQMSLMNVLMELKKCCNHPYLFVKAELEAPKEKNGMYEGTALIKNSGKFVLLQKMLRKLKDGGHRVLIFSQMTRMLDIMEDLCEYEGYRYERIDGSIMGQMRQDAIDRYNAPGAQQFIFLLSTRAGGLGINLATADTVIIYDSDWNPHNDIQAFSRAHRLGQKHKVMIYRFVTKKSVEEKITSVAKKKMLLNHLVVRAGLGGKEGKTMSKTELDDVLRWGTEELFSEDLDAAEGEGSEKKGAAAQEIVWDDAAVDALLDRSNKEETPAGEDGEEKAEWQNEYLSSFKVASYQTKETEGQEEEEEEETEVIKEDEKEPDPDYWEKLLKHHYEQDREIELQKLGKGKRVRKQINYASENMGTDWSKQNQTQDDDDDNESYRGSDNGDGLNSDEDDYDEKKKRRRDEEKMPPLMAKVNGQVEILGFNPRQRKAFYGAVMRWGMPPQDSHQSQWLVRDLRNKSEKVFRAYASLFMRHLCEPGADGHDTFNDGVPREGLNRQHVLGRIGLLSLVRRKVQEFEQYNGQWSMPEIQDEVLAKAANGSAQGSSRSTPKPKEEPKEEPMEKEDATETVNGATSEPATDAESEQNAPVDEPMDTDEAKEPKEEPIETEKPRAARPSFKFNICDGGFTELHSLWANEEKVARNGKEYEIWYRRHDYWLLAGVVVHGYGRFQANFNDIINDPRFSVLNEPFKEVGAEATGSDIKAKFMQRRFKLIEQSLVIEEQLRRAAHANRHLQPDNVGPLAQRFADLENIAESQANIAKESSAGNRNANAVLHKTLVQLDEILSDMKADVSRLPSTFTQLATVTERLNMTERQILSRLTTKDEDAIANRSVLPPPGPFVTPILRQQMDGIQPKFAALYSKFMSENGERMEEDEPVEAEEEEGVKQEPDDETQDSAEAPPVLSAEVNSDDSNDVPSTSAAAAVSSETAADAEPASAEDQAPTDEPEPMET
# These are yes or no findings as the source states them, for the method shown. For part of these data: Binding seen in cells or lysates may run through a third protein. For part of these data: Tags and fused reporters may be left off the sequences shown. Some binding calls cover weakened binding; strength is not graded here.
# T1: MEP-1 (C. elegans (endogenous in mixed-stage worms)), Q21502
# T1 chain: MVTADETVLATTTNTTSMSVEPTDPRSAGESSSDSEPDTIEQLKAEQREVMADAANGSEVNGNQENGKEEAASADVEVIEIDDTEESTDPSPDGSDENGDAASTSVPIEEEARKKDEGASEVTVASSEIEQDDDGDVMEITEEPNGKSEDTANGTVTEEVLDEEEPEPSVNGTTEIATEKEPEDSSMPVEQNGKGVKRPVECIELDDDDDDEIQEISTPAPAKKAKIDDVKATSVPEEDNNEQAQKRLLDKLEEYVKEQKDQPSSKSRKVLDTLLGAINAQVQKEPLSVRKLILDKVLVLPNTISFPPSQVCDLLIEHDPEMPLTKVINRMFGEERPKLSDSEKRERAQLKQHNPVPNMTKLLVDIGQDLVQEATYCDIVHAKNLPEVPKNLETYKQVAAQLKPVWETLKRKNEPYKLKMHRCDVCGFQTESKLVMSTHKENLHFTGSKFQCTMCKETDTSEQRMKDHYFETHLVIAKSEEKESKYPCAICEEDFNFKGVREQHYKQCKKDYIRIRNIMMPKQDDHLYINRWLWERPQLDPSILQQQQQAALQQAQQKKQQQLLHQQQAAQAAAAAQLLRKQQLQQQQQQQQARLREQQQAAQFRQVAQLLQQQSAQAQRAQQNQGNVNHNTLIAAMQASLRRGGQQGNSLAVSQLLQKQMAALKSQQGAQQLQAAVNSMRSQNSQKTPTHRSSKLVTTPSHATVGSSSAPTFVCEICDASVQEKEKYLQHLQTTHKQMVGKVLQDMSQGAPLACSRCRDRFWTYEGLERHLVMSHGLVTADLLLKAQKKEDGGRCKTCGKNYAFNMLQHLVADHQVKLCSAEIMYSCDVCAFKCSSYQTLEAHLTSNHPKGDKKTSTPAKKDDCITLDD
# Assays:
# [1] = molecular target: LET-418 (C. elegans (endogenous in mixed-stage worms)) (UniProt G5EBZ4); assay: SEC; fractionation of protein extracts from lin-40::gfp mixed-stage worms by Superdex 200 gel filtration; fractions analysed by Western blot
# [2] = molecular target: T1, MEP-1 (C. elegans (endogenous in …)); assay: co-IP; approximatively 1 mg of protein extract from mixed-stage worms with 1 µg of antibodies per reaction; anti-AFP mAb 3E6 for GFP-tagged proteins; immunoprecipitates analysed by Western blot; conditions: remark: other sources report otherwise
# [3] = molecular target: LET-418 (C. elegans (endogenous in mixed-stage worms)) (UniProt G5EBZ4); assay: as above
binder,measurement,setting,value
"MEP-1 (protein, UniProt Q21502 1-870) MVTADETVLATTTNTTSMSVEPTDPRSAGESSSDSEPDTIEQLKAEQREVMADAANGSEVNGNQENGKEEAASADVEVIEIDDTEESTDPSPDGSDENGDAASTSVPIEEEARKKDEGASEVTVASSEIEQDDDGDVMEITEEPNGKSEDTANGTVTEEVLDEEEPEPSVNGTTEIATEKEPEDSSMPVEQNGKGVKRPVECIELDDDDDDEIQEISTPAPAKKAKIDDVKATSVPEEDNNEQAQKRLLDKLEEYVKEQKDQPSSKSRKVLDTLLGAINAQVQKEPLSVRKLILDKVLVLPNTISFPPSQVCDLLIEHDPEMPLTKVINRMFGEERPKLSDSEKRERAQLKQHNPVPNMTKLLVDIGQDLVQEATYCDIVHAKNLPEVPKNLETYKQVAAQLKPVWETLKRKNEPYKLKMHRCDVCGFQTESKLVMSTHKENLHFTGSKFQCTMCKETDTSEQRMKDHYFETHLVIAKSEEKESKYPCAICEEDFNFKGVREQHYKQCKKDYIRIRNIMMPKQDDHLYINRWLWERPQLDPSILQQQQQAALQQAQQKKQQQLLHQQQAAQAAAAAQLLRKQQLQQQQQQQQARLREQQQAAQFRQVAQLLQQQSAQAQRAQQNQGNVNHNTLIAAMQASLRRGGQQGNSLAVSQLLQKQMAALKSQQGAQQLQAAVNSMRSQNSQKTPTHRSSKLVTTPSHATVGSSSAPTFVCEICDASVQEKEKYLQHLQTTHKQMVGKVLQDMSQGAPLACSRCRDRFWTYEGLERHLVMSHGLVTADLLLKAQKKEDGGRCKTCGKNYAFNMLQHLVADHQVKLCSAEIMYSCDVCAFKCSSYQTLEAHLTSNHPKGDKKTSTPAKKDDCITLDD",binding,[1],binds
"LIN-53, P90916 1-417 (protein) MATLEDGTSEDRVANDEYKIWKKNTPFLYDLVMTHALEWPSLSVQWLPDVAKDNSDHTIHRLILGTHTSDEQNHLLISKICMPTDDAQFDASRYDTERSEYGGFGAVNGKVEPDIRINHEGEVNRARYMPQKSNIIATKSPHADVYIFDYLKHSAVPRDNTFNPLIRLKGHTKEGYGLSWNPNKEGLILSASDDQTVCHWDINANQNVAGELQAKDVFKGHESVVEDVAWHVLHDGVFGSVGDDKKLLIWDVRTSTPGHCIDAHSAEVNCLAFNPYSEFILATGSADKTVALWDLRNLRMKLHSFESHRDEIFQVQWSPHNETILASSGTDKRLHVWDLSKIGEDQSAEDAEDGPPELLFIHGGHTAKISDFSWNPNEPWVVCSVSEDNILQVWQMADNIYNEVDEETPADVVERQQ",binding,[2],no binding
"HDA-2 (protein, UniProt Q09440 1-507) MSSDKFKLDTLFDDNDEIIEPDGADVKKRNVAYYYHKDVGHFHYGQLHPMKPQRLVVCNDLVVSYEMPKYMTVVESPKLDAADISVFHTEDYVNFLQTVTPKLGLTMPDDVLRQFNIGEDCPIFAGLWDYCTLYAGGSVEGARRLNHKMNDIVINWPGGLHHAKKSEASGFCYVNDIVLGILELLKYHKRVLYIDIDIHHGDGVQEAFNNSDRVMTVSFHRFGQYFPGSGSIMDKGVGPGKYFAINVPLMAAIRDEPYLKLFESVISGVEENFNPEAIVLQCGSDSLCEDRLGQFALSFNAHARAVKYVKSLGKPLMVLGGGGYTLRNVARCWALETGVILGLRMDDEIPGTSLYSHYFTPRLLRPNLVPKMNDANSAAYLASIEKETLACLRMIRGAPSVQMQNIVGIRLDEIEQIEENERLQKSSKSSIEYEVGKVSEKMEEECFVEEDSKPPSFPPGQDPRRIGQYWGYDRSGLAPPRSHSDVIEEAKYEDRDRRKDLNIPGIP",binding,[3],no binding
